Assay results published in the M2OR odorant receptor database.
The entries are a selection whose mix differs from that of the whole data set. Calls are pooled over several reports, among them a noisy single-well screen. Some of the results follow.

Legend:
Conditions in all cases: stereoisomer not certain
[1] = test system: T1, OR8G5
T1 sequence (whole entry): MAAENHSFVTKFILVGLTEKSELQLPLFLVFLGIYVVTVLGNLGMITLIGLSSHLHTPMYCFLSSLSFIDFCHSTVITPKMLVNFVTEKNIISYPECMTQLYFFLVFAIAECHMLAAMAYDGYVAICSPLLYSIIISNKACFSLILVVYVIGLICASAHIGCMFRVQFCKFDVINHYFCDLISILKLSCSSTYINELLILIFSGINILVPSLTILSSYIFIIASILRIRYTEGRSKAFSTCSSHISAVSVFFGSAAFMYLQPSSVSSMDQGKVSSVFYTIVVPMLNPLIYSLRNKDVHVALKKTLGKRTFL
How it was run: (§1)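 Each entry records the cell line, G-protein, co-transfected protein and tags used. Methods varied with the source, often transient luciferase assays in mammalian cell lines. A receptor–molecule pair is called responsive (active) if the original authors judged its signal statistically different from baseline and non-responsive (inactive) otherwise.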

[2] = target: T2, OR8H1 (Homo sapiens) (UniProt Q8NGG4)
T2 sequence (whole entry): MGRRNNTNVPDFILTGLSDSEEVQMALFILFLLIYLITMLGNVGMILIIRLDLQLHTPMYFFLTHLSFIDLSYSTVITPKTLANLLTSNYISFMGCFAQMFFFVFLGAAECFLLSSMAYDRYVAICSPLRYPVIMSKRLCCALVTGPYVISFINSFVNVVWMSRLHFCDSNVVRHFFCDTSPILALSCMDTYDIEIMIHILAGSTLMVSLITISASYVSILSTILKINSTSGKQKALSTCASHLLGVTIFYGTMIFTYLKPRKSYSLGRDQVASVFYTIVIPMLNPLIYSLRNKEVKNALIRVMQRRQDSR
How it was run: as §1

[3] = test system: T3, OR8H2
T3 sequence (whole entry): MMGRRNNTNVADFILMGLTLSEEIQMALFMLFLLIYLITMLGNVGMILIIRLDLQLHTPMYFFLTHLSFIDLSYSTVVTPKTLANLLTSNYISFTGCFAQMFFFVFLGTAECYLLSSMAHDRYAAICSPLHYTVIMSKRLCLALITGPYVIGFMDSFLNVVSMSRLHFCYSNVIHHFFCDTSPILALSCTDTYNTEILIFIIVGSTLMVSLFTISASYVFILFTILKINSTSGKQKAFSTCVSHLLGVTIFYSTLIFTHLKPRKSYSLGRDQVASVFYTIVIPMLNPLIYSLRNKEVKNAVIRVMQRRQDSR
How it was run: as §1

[4] = test system: T4, OR8H3
T4 sequence (whole entry): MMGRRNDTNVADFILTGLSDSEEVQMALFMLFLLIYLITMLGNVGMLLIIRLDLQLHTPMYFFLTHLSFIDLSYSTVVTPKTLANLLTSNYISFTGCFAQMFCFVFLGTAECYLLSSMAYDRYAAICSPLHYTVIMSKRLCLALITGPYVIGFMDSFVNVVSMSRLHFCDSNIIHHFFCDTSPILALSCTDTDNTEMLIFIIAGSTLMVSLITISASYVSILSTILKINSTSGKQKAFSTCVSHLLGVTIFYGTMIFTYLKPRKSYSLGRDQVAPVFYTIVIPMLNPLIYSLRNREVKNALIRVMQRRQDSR
How it was run: as §1

[5] = test system: T5, OR8I2
T5 sequence (whole entry): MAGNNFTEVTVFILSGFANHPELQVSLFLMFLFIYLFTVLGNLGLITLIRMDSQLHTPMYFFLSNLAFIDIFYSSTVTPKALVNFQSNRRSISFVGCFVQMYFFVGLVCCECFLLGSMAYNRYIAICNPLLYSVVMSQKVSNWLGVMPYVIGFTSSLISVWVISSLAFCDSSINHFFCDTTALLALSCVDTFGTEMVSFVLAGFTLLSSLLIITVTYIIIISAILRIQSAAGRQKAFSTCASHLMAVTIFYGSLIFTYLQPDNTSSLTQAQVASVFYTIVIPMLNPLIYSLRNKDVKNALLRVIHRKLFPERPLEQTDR
How it was run: as §1

[6] = test system: T6, OR8J1
T6 sequence (whole entry): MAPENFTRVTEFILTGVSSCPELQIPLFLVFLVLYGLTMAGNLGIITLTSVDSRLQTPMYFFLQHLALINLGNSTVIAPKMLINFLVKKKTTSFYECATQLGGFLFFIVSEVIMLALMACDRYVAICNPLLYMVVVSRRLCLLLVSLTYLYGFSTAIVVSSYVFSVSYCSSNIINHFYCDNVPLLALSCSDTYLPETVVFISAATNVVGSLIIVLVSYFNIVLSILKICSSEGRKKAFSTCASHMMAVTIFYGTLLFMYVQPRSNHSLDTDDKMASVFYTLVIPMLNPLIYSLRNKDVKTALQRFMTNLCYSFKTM
How it was run: as §1

[7] = target: T7, OR8J3 (Homo sapiens) (UniProt Q8NGG0)
T7 sequence (whole entry): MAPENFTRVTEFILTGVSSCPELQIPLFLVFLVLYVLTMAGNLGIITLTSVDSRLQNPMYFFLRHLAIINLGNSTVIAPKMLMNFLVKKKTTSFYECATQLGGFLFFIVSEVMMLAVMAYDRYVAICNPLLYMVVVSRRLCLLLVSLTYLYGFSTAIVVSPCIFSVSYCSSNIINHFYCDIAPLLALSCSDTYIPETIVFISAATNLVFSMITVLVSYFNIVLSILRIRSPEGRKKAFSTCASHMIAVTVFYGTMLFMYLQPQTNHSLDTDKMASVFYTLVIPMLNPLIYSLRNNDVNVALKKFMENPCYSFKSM
How it was run: as §1

[8] = target: T8, OR8K1 (Homo sapiens) (UniProt Q8NGG5)
T8 sequence (whole entry): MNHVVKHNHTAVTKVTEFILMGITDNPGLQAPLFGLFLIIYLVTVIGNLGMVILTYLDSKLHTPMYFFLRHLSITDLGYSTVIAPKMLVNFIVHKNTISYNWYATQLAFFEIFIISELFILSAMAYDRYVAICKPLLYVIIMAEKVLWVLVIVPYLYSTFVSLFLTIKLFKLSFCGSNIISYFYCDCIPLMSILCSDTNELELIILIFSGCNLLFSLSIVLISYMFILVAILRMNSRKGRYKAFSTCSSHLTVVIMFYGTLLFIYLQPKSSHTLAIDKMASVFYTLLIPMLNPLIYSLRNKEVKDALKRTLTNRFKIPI
How it was run: as §1

[9] = test system: T9, OR8K3
T9 sequence (whole entry): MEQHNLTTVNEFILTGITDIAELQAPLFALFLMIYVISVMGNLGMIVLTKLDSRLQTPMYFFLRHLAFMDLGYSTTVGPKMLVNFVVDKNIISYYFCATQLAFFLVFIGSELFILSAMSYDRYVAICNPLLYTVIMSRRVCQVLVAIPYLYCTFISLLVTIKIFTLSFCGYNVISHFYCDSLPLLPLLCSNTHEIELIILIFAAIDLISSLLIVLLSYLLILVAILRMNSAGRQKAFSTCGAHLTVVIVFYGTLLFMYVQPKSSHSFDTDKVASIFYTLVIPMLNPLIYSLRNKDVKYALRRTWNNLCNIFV
How it was run: as §1

[10] = test system: T10, OR8K5
T10 sequence (whole entry): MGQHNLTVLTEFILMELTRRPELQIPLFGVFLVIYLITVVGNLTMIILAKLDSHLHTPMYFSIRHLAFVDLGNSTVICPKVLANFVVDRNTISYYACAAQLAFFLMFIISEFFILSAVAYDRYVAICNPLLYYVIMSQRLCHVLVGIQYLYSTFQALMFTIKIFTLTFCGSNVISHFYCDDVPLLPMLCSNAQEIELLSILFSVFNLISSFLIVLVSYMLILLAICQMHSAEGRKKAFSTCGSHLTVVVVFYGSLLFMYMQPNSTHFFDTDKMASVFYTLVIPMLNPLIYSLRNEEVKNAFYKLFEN
How it was run: as §1

Measured: odorant receptor agonist call

CS
inactive: all assays above

CCCCOC(C)=O
inactive: all assays above

CCC(C)=O
inactive: all assays above
